Source: publication PMC11290141

The sequences below were run on GST-TaSPL7A (Triticum aestivum) (assay: EMSA). Conditions: LightShift Chemiluminescent EMSA Kit (Thermo 20148), 1 ug GST-TaSPL7A, room temperature, 20 min, native PAGE; salt and pH not stated; recombinant protein; protein details: GST; label: 5' biotin.

Binding result, binds:
AAAATCCGGAGATTCGCACGTACGATCGTTCGACACGTCGACGCCCGG (double strand) [P1-1 (VRN1 promoter)]
AGCGGTTCAGACTGGTACACACACACGGTACGCGAACGAGAGCGACAC (double strand) [P4]
AGTAGTACTGTAGTAATAAATCGCCCGTAGGAGTACCACTGGTAATGTG (double strand) [P5]
CCCTTCTTCTAGGCCTAGGGTACAGTAGAATATTATGAAAGGAAAAAT (double strand) [P1-2 (VRN1 promoter)]
TCAGCGGAAATACTCTCTCGTACGTGTGTGGAGGCAAATCCAACTTC (double strand) [P3]

Construct, isoform or probe ends are uncertain for at least one entry. At least one verdict rests on a figure or table, not on a statement of the authors.
